PubChem BioAssay AID1259308 – NCATS | 2017
Screen: 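Knock-downs that increase output of a recombinant reporter protein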 (primary screen). Cell system: human HEK293 embryonic kidney cells stably expressing firefly luciferase (HEK-CMV-Luc2-Hygro). Reagents: single siRNA against human genes, 0.8 pmol siRNA per well. Timing: 72 h. Read-out: 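Reporter luminescence and viable-cell signal on separate replicate plates, given as percent of non-targeting control and median/MAD z-scores, plus per-cell luciferase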. Reading the numbers: total luciferase, z-score: higher = more reporter protein produced. Call rule: 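An siRNA counts as active if its total luciferase robust z-score exceeds 3; genes with two or more such siRNAs out of three were retested with fresh siRNAs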. Meaning of the calls: active = raised luciferase; inactive = no rise.
This is a random part of about 59,000 deposited reagents. About 1,510 of them (2.6%) count as active. 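Calls use total luciferase alone and ignore viability, so some active siRNAs may act by altering cell number.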 Reagents against one gene are numbered here. Not all columns of the deposit are shown.

total luciferase, z-score, by target and reagent
PFDN6: #1 -1.63 inactive; #2 -0.776 inactive; #3 -0.821 inactive
UTF1: #1 1.52 inactive; #2 1.5 inactive; #3 -1.39 inactive
KBTBD6: #1 1.36 inactive; #2 0.571 inactive; #3 0.192 inactive
NHSL1: #1 0.499 inactive; #2 -0.988 inactive; #3 -0.861 inactive
INSC: #1 -0.166 inactive; #2 -0.516 inactive; #3 -2.33 inactive
UNC13A: #1 0.324 inactive; #2 0.157 inactive; #3 0.861 inactive
MRPS33: #1 -0.404 inactive; #2 2.16 inactive; #3 1.7 inactive
TJP1: #1 -0.617 inactive; #2 0.221 inactive; #3 -1.83 inactive
ZFAND3: #1 1.47 inactive; #2 0.296 inactive; #3 -0.505 inactive
SRCAP-AS1: #1 0.546 inactive; #2 4.08 active; #3 0.047 inactive
GSDME: #1 -0.549 inactive; #2 0.0605 inactive; #3 -0.407 inactive
REC114: #1 -0.259 inactive; #2 -0.511 inactive; #3 -1.1 inactive
SPG21: #1 1.57 inactive; #2 0.189 inactive; #3 -0.639 inactive
WFS1: #1 0.402 inactive; #2 -0.758 inactive; #3 2.61 inactive
PLCH1: #1 1.43 inactive; #2 0.0963 inactive; #3 0.183 inactive
YEATS4: #1 1.36 inactive; #2 0.36 inactive; #3 0.336 inactive

As entered above.
GSDME #3, activity call → inactive
Under “activity call”, KBTBD6 #3 reads inactive
UNC13A #1, total luciferase, z-score = 0.324
Under “total luciferase, z-score”, SPG21 #2 reads 0.189
Under “total luciferase, z-score”, PLCH1 #3 shows 0.183
Result of TJP1 #2 in “total luciferase, z-score”: 0.221

Continued.
total luciferase, z-score, by target and reagent
IGHV4OR15-8: #1 0.236 inactive; #2 -1.75 inactive; #3 -0.163 inactive
CLEC7A: #1 -1.31 inactive; #2 0.356 inactive; #3 0.155 inactive
CHMP1A: #1 0.274 inactive; #2 -1.3 inactive; #3 1.14 inactive
C1QB: #1 -0.167 inactive; #2 0.694 inactive; #3 1.22 inactive
MORC3: #1 -0.0984 inactive; #2 -1.19 inactive; #3 0.943 inactive
SUPT5H: #1 -0.398 inactive; #2 -1.92 inactive; #3 -0.605 inactive
SEC22C: #1 0.377 inactive; #2 1.2 inactive; #3 1.96 inactive
MAP2K5: #1 -0.0634 inactive; #2 0.777 inactive; #3 -1.02 inactive
TCF12: #1 -0.106 inactive; #2 -1.44 inactive; #3 -0.0762 inactive
